From paper doi:10.1101/2022.04.26.489478
These are yes or no findings as the source states them, for the method shown. Binding seen in cells or lysates may run through a third protein. Some results given as binding are weak or reduced against the parent protein; the word gives no strength. Sequences can lack the tags named with a protein.

Amino acid sequences for entries named in this document (tags omitted).
UniProt O95166: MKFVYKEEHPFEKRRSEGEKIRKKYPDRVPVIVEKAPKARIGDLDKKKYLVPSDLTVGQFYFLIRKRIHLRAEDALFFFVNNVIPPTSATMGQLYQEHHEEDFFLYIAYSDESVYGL

Target: GST-GABARAP (human) (UniProt O95166)
Assay: pull-down

binding: binds
B1: MBP-HsC53 (protein, UniProt Q96JB5 1-506)
chain: MEDHQHVPIDIQTSKLLDWLVDRRHCSLKWQSLVLTIREKINAAIQDMPESEEIAQLLSGSYIHYFHCLRILDLLKGTEASTKNIFGRYSSQRMKDWQEIIALYEKDNTYLVELSSLLVRNVNYEIPSLKKQIAKCQQLQQEYSRKEEECQAGAAEMREQFYHSCKQYGITGENVRGELLALVKDLPSQLAEIGAAAQQSLGEAIDVYQASVGFVCESPTEQVLPMLRFVQKRGNSTVYEWRTGTEPSVVERPHLEELPEQVAEDAIDWGDFGVEAVSEGTDSGISAEAAGIDWGIFPESDSKDPGGDGIDWGDDAVALQITVLEAGTQAPEGVARGPDALTLLEYTETRNQFLDELMELEIFLAQRAVELSEEADVLSVSQFQLAPAILQGQTKEKMVTMVSVLEDLIGKLTSLQLQHLFMILASPRYVDRVTEFLQQKLKQSQLLALKKELMVQKQQEALEEQAALEPKLDLLLEKTKELQKLIEADISKRYSGRPVNLMGTSL
